log2 fold change data for 35 targets are collected here from the supplement of paper PMC10849652.

Amino acid sequences for entries named in this document (tags omitted). A change or cut given only in a name is not applied to a line headed by its entry.
UniProt Q86UT6, whole entry, looked up: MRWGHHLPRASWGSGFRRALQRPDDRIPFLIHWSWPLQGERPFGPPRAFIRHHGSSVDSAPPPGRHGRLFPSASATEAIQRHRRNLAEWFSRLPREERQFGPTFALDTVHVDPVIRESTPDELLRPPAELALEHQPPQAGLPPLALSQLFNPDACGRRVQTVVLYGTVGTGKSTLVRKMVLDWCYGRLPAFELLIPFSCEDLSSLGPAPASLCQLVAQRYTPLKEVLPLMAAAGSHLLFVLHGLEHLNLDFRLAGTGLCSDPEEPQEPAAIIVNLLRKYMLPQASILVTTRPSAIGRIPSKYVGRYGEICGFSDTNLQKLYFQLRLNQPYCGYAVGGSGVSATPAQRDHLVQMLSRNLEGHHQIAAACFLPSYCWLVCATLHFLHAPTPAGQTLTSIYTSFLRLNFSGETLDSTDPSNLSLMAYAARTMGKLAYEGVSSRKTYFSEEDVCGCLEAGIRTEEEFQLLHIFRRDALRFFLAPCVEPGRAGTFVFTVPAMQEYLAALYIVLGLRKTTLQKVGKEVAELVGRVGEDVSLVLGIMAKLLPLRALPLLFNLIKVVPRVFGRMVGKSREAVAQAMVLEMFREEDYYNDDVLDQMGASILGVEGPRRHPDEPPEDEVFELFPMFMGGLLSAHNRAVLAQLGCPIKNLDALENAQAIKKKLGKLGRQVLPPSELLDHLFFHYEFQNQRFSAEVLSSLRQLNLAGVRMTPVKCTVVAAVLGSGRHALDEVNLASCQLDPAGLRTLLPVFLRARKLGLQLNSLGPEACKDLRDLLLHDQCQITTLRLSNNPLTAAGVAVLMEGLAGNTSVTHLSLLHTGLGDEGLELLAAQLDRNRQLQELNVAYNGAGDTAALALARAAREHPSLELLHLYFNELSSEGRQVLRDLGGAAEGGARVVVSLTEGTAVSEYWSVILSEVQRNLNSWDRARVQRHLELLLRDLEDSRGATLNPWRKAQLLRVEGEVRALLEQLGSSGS
UniProt P13056: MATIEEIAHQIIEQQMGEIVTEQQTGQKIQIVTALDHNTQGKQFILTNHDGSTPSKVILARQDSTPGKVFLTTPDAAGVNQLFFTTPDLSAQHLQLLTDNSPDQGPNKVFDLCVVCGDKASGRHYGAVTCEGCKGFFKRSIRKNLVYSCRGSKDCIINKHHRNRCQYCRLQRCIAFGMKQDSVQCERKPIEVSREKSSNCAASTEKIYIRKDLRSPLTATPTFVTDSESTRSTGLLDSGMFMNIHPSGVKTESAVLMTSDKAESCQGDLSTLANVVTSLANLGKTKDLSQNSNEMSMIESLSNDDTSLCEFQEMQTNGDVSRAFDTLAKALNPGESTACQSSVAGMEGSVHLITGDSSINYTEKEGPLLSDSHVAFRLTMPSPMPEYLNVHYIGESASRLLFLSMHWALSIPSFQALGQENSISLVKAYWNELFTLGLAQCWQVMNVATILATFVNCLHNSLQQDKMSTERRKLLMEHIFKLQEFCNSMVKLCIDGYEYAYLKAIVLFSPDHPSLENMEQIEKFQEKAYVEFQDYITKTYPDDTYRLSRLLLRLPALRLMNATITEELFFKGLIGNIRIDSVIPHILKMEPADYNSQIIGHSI
UniProt P30414: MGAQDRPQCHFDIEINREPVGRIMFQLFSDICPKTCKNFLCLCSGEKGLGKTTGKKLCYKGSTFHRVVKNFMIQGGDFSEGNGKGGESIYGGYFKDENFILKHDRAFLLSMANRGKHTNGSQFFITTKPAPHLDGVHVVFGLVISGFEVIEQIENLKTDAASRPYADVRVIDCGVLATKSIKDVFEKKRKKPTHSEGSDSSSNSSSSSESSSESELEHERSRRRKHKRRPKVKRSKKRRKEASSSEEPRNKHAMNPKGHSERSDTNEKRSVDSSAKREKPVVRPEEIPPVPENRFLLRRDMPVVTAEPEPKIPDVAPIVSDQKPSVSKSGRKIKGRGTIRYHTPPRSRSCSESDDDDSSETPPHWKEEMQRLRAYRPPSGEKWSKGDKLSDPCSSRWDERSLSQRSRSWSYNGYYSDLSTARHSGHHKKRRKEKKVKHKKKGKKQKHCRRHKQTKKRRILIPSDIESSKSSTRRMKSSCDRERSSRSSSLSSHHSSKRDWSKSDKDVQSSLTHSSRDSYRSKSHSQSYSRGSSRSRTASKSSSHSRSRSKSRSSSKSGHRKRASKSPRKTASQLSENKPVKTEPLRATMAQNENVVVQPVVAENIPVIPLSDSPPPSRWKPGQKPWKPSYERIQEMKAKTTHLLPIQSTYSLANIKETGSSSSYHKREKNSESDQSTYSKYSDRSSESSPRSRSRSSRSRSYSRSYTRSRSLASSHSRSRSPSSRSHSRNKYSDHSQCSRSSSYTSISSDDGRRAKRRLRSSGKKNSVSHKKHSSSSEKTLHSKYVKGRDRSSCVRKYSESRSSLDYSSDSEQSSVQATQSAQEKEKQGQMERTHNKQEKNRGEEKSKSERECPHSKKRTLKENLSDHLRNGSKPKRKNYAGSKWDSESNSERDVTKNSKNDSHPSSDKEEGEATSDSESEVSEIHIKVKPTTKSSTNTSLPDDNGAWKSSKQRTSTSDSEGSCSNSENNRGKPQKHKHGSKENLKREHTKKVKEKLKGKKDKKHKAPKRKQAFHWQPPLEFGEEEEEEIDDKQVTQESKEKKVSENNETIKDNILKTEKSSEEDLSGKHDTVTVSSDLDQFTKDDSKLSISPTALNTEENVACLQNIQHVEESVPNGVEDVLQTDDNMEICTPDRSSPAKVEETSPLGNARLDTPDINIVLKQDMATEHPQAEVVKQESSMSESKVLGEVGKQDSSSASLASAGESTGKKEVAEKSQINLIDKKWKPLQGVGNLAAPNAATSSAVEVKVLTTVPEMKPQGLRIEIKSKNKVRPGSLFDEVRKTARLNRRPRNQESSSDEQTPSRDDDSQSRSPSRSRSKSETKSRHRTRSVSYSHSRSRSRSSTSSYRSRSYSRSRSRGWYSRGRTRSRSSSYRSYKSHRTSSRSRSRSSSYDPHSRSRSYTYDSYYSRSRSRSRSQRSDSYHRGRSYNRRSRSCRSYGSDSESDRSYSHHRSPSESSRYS
UniProt O00746: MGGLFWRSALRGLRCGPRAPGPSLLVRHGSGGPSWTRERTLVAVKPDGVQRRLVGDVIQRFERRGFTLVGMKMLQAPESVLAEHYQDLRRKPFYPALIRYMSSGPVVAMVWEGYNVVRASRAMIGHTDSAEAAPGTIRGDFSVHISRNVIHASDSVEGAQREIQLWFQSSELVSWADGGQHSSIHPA
UniProt Q92686, whole entry, looked up: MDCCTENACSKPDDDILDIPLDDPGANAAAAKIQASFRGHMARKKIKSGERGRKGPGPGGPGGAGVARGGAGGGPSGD
UniProt Q9NPE3: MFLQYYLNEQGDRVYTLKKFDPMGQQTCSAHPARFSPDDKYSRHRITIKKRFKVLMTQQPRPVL
UniProt P78316: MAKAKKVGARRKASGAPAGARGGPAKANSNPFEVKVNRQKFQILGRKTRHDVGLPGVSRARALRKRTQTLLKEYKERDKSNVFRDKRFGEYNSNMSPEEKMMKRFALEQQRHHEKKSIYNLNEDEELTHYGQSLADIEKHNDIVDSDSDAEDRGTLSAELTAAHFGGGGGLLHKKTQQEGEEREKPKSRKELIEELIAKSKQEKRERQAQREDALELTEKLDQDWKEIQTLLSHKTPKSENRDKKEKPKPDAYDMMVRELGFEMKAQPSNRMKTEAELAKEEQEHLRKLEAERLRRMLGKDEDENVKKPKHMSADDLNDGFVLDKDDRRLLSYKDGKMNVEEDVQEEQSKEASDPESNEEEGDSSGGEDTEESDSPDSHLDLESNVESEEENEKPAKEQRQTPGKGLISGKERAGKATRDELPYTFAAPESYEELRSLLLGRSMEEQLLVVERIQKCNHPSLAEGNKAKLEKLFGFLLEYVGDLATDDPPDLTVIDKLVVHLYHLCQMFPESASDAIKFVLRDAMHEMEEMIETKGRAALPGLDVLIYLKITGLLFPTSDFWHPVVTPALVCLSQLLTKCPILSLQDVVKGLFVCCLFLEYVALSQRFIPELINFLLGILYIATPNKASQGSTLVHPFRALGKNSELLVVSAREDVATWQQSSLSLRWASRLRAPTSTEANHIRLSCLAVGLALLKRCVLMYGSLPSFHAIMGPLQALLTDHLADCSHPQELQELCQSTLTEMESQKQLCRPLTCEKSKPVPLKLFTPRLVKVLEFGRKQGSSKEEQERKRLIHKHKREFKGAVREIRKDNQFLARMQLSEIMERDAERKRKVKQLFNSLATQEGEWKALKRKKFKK
UniProt Q9NWW6: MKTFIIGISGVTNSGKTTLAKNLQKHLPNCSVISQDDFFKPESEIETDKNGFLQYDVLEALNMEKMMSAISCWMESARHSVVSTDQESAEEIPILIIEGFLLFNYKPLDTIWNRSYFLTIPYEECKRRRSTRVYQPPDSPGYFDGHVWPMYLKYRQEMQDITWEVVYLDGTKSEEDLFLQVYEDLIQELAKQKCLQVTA
UniProt Q12980: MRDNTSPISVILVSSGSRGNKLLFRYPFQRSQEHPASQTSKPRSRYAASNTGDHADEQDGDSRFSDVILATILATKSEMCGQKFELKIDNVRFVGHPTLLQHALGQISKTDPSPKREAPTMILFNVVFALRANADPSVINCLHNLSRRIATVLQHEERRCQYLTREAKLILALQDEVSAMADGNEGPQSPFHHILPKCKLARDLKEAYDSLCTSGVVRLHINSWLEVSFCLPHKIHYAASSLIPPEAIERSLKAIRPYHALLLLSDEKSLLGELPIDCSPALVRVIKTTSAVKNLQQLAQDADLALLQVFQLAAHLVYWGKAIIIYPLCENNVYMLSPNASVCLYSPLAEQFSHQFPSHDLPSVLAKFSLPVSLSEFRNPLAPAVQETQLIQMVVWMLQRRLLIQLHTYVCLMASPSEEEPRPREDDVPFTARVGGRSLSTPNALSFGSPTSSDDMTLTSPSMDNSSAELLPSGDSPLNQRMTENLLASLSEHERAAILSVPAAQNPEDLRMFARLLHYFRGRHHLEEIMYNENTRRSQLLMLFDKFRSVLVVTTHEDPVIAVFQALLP
UniProt Q9NYR9: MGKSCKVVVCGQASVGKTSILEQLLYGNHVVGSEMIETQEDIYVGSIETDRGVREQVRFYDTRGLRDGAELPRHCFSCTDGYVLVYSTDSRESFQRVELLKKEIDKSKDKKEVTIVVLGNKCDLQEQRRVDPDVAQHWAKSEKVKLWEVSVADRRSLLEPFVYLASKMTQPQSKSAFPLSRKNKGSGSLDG
UniProt Q9GZP1: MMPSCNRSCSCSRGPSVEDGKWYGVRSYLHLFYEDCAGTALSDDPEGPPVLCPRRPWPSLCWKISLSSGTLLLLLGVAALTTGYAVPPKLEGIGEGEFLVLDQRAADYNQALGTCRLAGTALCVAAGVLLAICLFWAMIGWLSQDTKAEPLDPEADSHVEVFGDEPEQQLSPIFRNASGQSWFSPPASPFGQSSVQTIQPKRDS
UniProt Q9BVI4: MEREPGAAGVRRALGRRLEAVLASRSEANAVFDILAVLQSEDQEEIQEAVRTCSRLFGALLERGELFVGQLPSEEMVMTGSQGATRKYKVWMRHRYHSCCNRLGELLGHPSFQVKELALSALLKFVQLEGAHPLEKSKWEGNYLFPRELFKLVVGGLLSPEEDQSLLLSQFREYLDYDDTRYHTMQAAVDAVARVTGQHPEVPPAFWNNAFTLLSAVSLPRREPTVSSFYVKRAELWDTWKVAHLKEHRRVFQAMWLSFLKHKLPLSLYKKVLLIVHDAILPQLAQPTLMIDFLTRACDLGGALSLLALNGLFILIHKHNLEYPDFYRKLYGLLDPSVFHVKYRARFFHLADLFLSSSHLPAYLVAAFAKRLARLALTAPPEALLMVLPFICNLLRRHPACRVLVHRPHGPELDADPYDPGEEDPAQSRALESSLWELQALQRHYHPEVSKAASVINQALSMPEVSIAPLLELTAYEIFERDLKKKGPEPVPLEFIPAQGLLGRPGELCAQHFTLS
UniProt Q9NSY0: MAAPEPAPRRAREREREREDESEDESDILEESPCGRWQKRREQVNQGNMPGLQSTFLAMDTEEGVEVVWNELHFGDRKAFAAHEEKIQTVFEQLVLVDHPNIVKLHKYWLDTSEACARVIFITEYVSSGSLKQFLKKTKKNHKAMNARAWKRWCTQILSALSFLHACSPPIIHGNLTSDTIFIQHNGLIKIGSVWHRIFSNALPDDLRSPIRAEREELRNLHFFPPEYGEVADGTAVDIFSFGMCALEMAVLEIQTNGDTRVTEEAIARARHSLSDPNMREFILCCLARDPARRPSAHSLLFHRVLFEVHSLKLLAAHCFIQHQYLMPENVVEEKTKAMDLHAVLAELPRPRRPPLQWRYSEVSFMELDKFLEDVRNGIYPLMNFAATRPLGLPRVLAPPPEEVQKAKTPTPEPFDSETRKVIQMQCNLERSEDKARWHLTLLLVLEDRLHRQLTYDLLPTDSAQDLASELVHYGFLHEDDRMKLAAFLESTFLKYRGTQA

Common to all, as to assay: log2 fold change, soluble protein after heating vs DMSO (PISA); higher = thermal stabilisation; K562 cells, 10 uM, 30 min; active = over 0.2 and 3.5 SD of the protein, either way, in both replicates (recomputed)
Compound in one assay: CC[C@@H]1C(=O)N(C)c2cnc(Nc3ccc(C(=O)N[C@H]4CC[C@H](N5CCN(CC6CC6)CC5)CC4)cc3OC)nc2N1C(C)C [volasertib]
The gist of the method: (§1)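 K562 cells at 2×10^6 cells/mL were treated for 30 min with 10 μM compound, and aliquots were heated for 3 min over 48°C-58°C before pooling. Extraction used PBS with 0.5% NP-40 at 4°C, and soluble protein was the supernatant after 21,000xg for 90 min, measured by TMTpro 16plex LC-MS/MS with channel sums equalised. Thermal stability values, relative to control samples and from duplicates, are log2 fold changes.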

Compound in assay [1]: CC[C@H](C)N1C=C(C2=C(C=C(C=C21)C3=CN=C(C=C3)N4CCNCC4)C(=O)NCC5=C(C=C(NC5=O)C)C)C
The gist of the method:
as §1

Compound in a further assay: CC[C@H](C)[C@@H](C(=O)N[C@@H]([C@@H](C)O)C(=O)N[C@@H](CC(C)C)C(=O)[C@]1(CO1)C)NC(=O)[C@H]([C@@H](C)CC)N(C)C(=O)C [epoxomicin]
The gist of the method:
as §1

Compound in assay [2]: CCn1c(C(=O)N(C2CC2)C2CC2)cc2c3c(ncn3C)c(Nc3cc(C)n(C)n3)nc21
The gist of the method:
as §1

Compound in assay [3]: CCn1cc(-c2ccnc3[nH]c(-c4cccc(CN(C)C)c4)cc23)c(-c2ccc(NC(=O)N(C)C)cc2)n1
The gist of the method:
as §1

Compound in another assay: CN(CCOC1=CC=C(C=C1)C[C@H]2C(=O)NC(=O)S2)C3=CC=CC=N3 (racemic) [rosiglitazone]
The gist of the method: as §1

Compound in assay [4]: CN1CCC(CNc2ccc3ncc(-c4cccc(OC(F)(F)F)c4)n3n2)CC1
The gist of the method:
as §1

Compound in assay [5]: CN(C)CC(=O)Nc1ccc2[nH]c(=O)c3ccccc3c2c1
The gist of the method: as §1

Compound in assay [6]: CN1C2=C(C3=C1C(=O)N(N=C3)CC4=CC(=CC=C4)N)SC(=C2)S(=O)C
The gist of the method:
as §1

Compound in assay [7]: CC[C@@H]1C(=O)N(C)c2cnc(Nc3ccc(C(=O)NC4CCN(C)CC4)cc3OC)nc2N1C1CCCC1
The gist of the method:
as §1

This is one part of the list.

Consider NLRX1 (UniProt Q86UT6), for which the log2 fold change with volasertib is inactive: -0.289; in [1] it was inactive: -0.185; with epoxomicin, inactive: -0.019; in assay [2], inactive: -0.201.

As to NOC3L (UniProt Q8WTT2), the log2 fold change in assay [1] was inactive: -0.09; with epoxomicin it was inactive: -0.264; in [3], inactive: 0.058; with rosiglitazone it was inactive: 0.114; in assay [4], inactive: -0.252.

NOMO3 (UniProt P69849): the values for the log2 fold change (with epoxomicin; in assay [2]; with rosiglitazone) were inactive: -0.031, inactive: -0.004 and inactive: 0.109, respectively.

As to NR2C1 (UniProt P13056), the log2 fold change is inactive: -0.009 in assay [1], inactive: 0.245 with epoxomicin, inactive: -0.14 in assay [5] and inactive: -0.15 with rosiglitazone.

Turning to NELFCD (UniProt Q8IXH7), the log2 fold change with volasertib is active: -0.562; in assay [1] it was inactive: 0.244; in the assay with epoxomicin it was inactive: -0.052; in assay [3], inactive: -0.113; in assay [5] it was inactive: 0.298; in assay [6] it was inactive: -0.05. Also, the log2 fold change in assay [4] is inactive: 0.226.

In the case of NKTR (UniProt P30414), the log2 fold change with volasertib is inactive: -0.152.

For NOTCH2 (UniProt Q04721), the log2 fold change in assay [2] is inactive: -0.015; with rosiglitazone it was inactive: 0.212.

Take NFE2L1 (UniProt Q14494): the log2 fold change with volasertib was inactive: -0.07; with epoxomicin, inactive: 0.205; in assay [2], inactive: 0.138; in [3] it was inactive: 0.117; in assay [5] it was inactive: -0.062; in assay [4] it was inactive: -0.193.

Consider NFKBIA (UniProt P25963), for which the log2 fold change is inactive: -0.129 in assay [7]; inactive: -0.101 in assay [2]; inactive: 0.059 in assay [3]; inactive: 0.183 in assay [5]; inactive: -0.107 in assay [6]; inactive: -0.194 in [4].

As for NME4 (UniProt O00746), the log2 fold change in assay [7] is inactive: 0.024; in assay [2] it was inactive: -0.214; in assay [3], inactive: 0.021; in [4], inactive: 0.089.

NRGN (UniProt Q92686): the log2 fold change in the assay with volasertib is inactive: 0.052; in assay [1], inactive: -0.088; in the assay with epoxomicin it was inactive: 0.162; in assay [3] it was inactive: 0.14; in [4], inactive: -0.547.

With NSA2 (UniProt O95478), the log2 fold change in the assay with epoxomicin was inactive: -0.261; in assay [3] it was inactive: 0.038; with rosiglitazone it was inactive: 0.161; in assay [4] it was inactive: 0.329.

As to NSD3 (UniProt Q9BZ95), the log2 fold change in the assay with epoxomicin is inactive: -0.011; in [2], inactive: -0.098; in assay [3] it was inactive: 0.244; in assay [5], inactive: 0.076; in the assay with rosiglitazone it was inactive: 0.34; in [6], inactive: -0.026. Also, the log2 fold change in [4] was inactive: 0.081.

On to NOSTRIN isoform 4 (UniProt Q8IVI9), for which the log2 fold change in [7] was inactive: 0.094; in [1] it was inactive: 0.276; in [2], inactive: -0.011.

Turning to NOP10 (UniProt Q9NPE3), the log2 fold change in the assay with volasertib is inactive: 0.056; in assay [1] it was inactive: -0.051; in assay [2], inactive: -0.061; in the assay with rosiglitazone, inactive: -0.107; in [6], inactive: 0.136.

With NOL4L (UniProt Q96MY1), the log2 fold change is inactive: 0.101 in assay [1], inactive: -0.088 in the assay with epoxomicin, inactive: -0.078 in [2] and inactive: 0.081 in assay [6].

For the target NOTCH1 (UniProt P46531), the log2 fold change in assay [1] was inactive: 0.023; with epoxomicin, inactive: -0.097.

With NRROS (UniProt Q86YC3), the log2 fold change in the assay with volasertib was inactive: -0.003; in assay [1], inactive: 0.031; in assay [3], inactive: 0.045; in [4], inactive: 0.063.

As to NFIC isoform 6 (UniProt P08651), in [5], the log2 fold change was inactive: 0.235.

Take NETO2 (UniProt Q8NC67): in assay [5], the log2 fold change was inactive: -0.007.

In the case of NEU3 isoform 2 (UniProt Q9UQ49), the log2 fold change with volasertib is inactive: -0.158.

For the target NOP14 (UniProt P78316), the log2 fold change in [1] is inactive: 0.016; in the assay with epoxomicin, inactive: -0.024; in [3] it was inactive: 0.069; in assay [5] it was inactive: -0.015; in [6], inactive: 0.208; in assay [4] it was inactive: 0.067.

As for NEO1 (UniProt Q92859), the log2 fold change in [7] is inactive: -0.01; in assay [1], inactive: -0.086; in [5], inactive: -0.021.

Regarding NMRK1 (UniProt Q9NWW6), the results for the log2 fold change in assay [2] and in assay [6] were inactive: 0.077 and inactive: 0.065, respectively.

For the target NEURL4 (UniProt Q96JN8), the log2 fold change in assay [7] is inactive: 0.069; in [2] it was inactive: -0.021; in assay [5] it was inactive: -0.154; with rosiglitazone, inactive: -0.03; in [6], inactive: 0.092.

Regarding NPRL3 (UniProt Q12980), the log2 fold change in [2] is inactive: -0.117; in assay [6], inactive: -0.056.

NOL9 (UniProt Q5SY16): in [2], the log2 fold change is inactive: 0.015.

As to NOL8 (UniProt Q76FK4), the log2 fold change with volasertib was inactive: -0.133; in assay [3], inactive: 0.119; in [6], inactive: 0.108; in assay [4] it was inactive: -0.306.

In the case of NKIRAS2 (UniProt Q9NYR9), the log2 fold change in assay [1] was inactive: -0.158; with epoxomicin it was inactive: -0.07; in [2], inactive: -0.038.

NRSN2 (UniProt Q9GZP1): the values for the log2 fold change (with epoxomicin; in [2]; in assay [6]) were inactive: 0.083, inactive: -0.229 and inactive: -0.34, respectively.

Regarding NME7 (UniProt Q9Y5B8), the log2 fold change was inactive: -0.014 in [7]; active: -0.358 with volasertib; inactive: -0.072 in the assay with epoxomicin; inactive: -0.044 in [3]; inactive: -0.045 in assay [5]; inactive: 0.014 in assay [6]. The log2 fold change in assay [4] is inactive: -0.314.

For the target NSD1 (UniProt Q96L73), the log2 fold change is inactive: 0.056 in [7]; inactive: 0.013 in assay [1]; inactive: 0.071 in assay [2]; inactive: -0.155 in assay [3]; inactive: -0.013 with rosiglitazone; inactive: 0.021 in assay [6]. In assay [4], the log2 fold change was inactive: -0.205.

Consider NOC4L (UniProt Q9BVI4), for which the log2 fold change in [1] is inactive: -0.196; in assay [3], inactive: 0.016; in assay [4] it was inactive: 0.281.

For the target NRBP2 (UniProt Q9NSY0), in [2], the log2 fold change is inactive: -0.065.

Turning to NOD1 (UniProt Q9Y239), the log2 fold change in assay [7] is inactive: 0.174; with volasertib it was inactive: 0.297; with epoxomicin, inactive: 0.061; in assay [3], inactive: -0.065; in the assay with rosiglitazone, inactive: 0.026; in [6], inactive: 0.229. Besides, in assay [4], the log2 fold change was inactive: 0.028.
